These are yes or no findings as the source states them, for the method shown. Binding seen in cells or lysates may run through a third protein. Some results given as binding are weak or reduced against the parent protein; the word gives no strength. Where a sequence is shown, tags or fusion partners need not be part of it.
Molecular target: Flag-TonEBP NT (N-terminal fragment of TonEBP generated by SARS-CoV-2 NSP5 cleavage, TonEBP 1-1127) (UniProt O94916)
Test: co-IP

Protein sequences, listed by entry. Tags and fused reporters are not part of them. Residues count along the entry.
UniProt O94916, residues 1-1127: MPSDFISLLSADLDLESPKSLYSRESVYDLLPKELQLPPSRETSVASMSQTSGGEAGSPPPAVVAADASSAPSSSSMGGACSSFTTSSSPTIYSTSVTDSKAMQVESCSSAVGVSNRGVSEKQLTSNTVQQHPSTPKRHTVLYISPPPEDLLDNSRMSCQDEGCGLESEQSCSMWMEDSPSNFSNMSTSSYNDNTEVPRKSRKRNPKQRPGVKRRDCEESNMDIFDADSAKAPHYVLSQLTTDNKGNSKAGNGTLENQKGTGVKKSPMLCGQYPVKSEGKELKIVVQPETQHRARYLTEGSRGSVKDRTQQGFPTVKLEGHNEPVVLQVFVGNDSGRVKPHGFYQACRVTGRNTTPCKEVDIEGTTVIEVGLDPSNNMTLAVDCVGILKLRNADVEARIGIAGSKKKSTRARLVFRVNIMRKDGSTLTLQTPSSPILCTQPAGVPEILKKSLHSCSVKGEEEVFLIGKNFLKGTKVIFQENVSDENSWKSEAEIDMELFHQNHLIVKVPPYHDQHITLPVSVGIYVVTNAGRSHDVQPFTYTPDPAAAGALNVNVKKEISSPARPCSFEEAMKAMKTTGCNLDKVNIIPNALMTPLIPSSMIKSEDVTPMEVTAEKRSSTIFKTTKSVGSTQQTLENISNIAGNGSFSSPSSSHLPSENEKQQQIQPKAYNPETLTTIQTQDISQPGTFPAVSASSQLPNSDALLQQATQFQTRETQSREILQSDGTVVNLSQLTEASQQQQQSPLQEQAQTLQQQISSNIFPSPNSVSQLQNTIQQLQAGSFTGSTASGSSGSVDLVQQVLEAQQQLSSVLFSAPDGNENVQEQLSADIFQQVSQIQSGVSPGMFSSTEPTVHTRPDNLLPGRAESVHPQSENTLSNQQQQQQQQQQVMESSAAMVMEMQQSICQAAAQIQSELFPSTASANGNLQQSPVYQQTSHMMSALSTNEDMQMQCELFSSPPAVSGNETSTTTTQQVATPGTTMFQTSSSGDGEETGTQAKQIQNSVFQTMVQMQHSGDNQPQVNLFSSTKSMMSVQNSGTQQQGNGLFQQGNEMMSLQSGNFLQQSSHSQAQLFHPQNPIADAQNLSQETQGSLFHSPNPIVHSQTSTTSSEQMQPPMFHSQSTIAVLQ
UniProt Q04206: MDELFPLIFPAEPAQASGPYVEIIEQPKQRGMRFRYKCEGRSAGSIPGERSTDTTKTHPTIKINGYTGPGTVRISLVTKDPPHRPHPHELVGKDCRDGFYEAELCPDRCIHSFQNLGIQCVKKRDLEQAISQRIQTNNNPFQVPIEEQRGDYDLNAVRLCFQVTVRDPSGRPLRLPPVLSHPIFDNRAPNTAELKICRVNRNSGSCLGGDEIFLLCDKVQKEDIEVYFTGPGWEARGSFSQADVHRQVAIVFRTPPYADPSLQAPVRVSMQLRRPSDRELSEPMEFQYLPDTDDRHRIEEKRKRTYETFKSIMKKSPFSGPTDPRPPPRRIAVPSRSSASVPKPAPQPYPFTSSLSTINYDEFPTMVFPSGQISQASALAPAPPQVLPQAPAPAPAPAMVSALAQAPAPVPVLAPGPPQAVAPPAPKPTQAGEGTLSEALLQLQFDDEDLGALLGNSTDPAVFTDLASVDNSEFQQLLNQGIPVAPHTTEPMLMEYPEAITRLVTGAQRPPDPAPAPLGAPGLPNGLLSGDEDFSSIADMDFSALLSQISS

Molecule | binding
YFP-p65 (from UniProt Q04206 1-551) | binds
GFP-IRF3 (protein, UniProt Q14653 1-427) MGTPKPRILPWLVSQLDLGQLEGVAWVNKSRTRFRIPWKHGLRQDAQQEDFGIFQAWAEATGAYVPGRDKPDLPTWKRNFRSALNRKEGLRLAEDRSKDPHDPHKIYEFVNSGVGDFSQPDTSPDTNGGGSTSDTQEDILDELLGNMVLAPLPDPGPPSLAVAPEPCPQPLRSPSLDNPTPFPNLGPSENPLKRLLVPGEEWEFEVTAFYRGRQVFQQTISCPEGLRLVGSEVGDRTLPGWPVTLPDPGMSLTDRGVMSYVRHVLSCLGGGLALWRAGQWLWAQRLGHCHTYWAVSEELLPNSGHGPDGEVPKDKEGGVFDLGPFIVDLITFTEGSGRSPRYALWFCVGESWPQDQPWTKRLVMVKVVPTCLRALVEMARVGGASSLENTVDLHISNSHPLSLTSDQYKAYLQDLVEGMDFQGPGES | no binding

— publication PMC11476177
